# Laboratory results taken from patent US20030229164A1, “Low foam N-alkyltartarimide and N-alkylmalimide wetting agents” (priority 2002, published 2003).
# At least one compound was matched to its structure with a doubt left.
# Columns and labels:
# [1] = Foaming properties of aqueous solutions, procedure based upon ASTM D 1173-53; assay type: physicochemical
# Procedure: The foaming properties of aqueous solutions of N-2-ethylhexyl tartarimide (Ex 1), N-decyl tartarimide (Ex 2), N-2-ethylhexyl malimide (Ex 4) and two representative nonionic surfactants, a commercial nonylphenol 15 mole ethoxylate surfactant and a commercial C8 alkyl glucoside surfactant, were examined using a procedure based upon ASTM D 1173-53.
# In this test, a 0.1 wt % aqueous mixtures of the tartramides and malimide were prepared, any undissolved solids were filtered off, and the filtrate was added from an elevated glass pipette to a glass receiver containing the same filtrate. Regarding the commercial materials, a 0.1 wt % solution of the surfactant was added from an elevated glass pipette to a glass receiver containing the same solution. The foam height was measured at the completion of the addition (“Initial Foam Height”) and the time required for the foam to dissipate at the air-liquid interface (“Time to 0 Foam”) was recorded. This test provides a comparison between the foaming characteristics of various surfactants. In general, in coatings, inks, adhesives and agricultural formulations, foam is undesirable because it complicates handling and can lead to coating and print defects, and to inefficient application of agricultural materials.
# [2] = Equilibrium surface tension of aqueous solutions, Wilhelmy plate method; assay type: physicochemical
# Procedure: where R^1 is a C5 to C10 alkyl group. […] The Wilhelmy plate method of measuring surface tension is described in L. Wilhelmy's article in Ann. Phys. 1863, 119, 177, which is incorporated by reference.
# Saturated solutions containing <0.1 wt % of the materials of Examples 1-4 in distilled water were prepared. After shaking the solutions for ˜24 hours, the undissolved material was removed via filtration. Equilibrium surface tension data were obtained using the Wilhelmy plate method.
# The limiting surface tensions represent the lowest surface tensions in water which can be achieved for a given surfactant regardless of the amount of surfactant used and is used to evaluate the effectiveness of a surfactant. Lower surface tensions would allow the elimination of defects upon application of a formulation onto low energy surfaces.
smiles,measurement,setting,value
"CCCCC(CC)CN1C(=O)CC(O)C1=O (racemic) [Example 4, N-2-Ethylhexyl DL-malimide]",Foam after 5 min,"[1]; 0.1 wt % aqueous mixture (filtrate) or solution, after 5 min",0 cm
same,Initial Foam,"[1]; 0.1 wt % aqueous mixture (filtrate) or solution, foam height at completion of addition",0 cm
same,Time to zero foam,"[1]; 0.1 wt % aqueous mixture (filtrate), values printed in sec",0 s
same,lowering the equilibrium surface tension of water (in words),"[2]; aqueous solutions, Table 1 data",particularly effective
same,Limiting EST,"[2]; saturated solutions containing <0.1 wt % in distilled water, filtered, Wilhelmy plate",37.2 dyne/cm
